Measurements taken from PMC5505151, “A proteomic analysis of LRRK2 binding partners reveals interactions with multiple signaling components of the WNT/PCP pathway” (Molecular Neurodegeneration, 2017).
Results are given in words; binding and its absence hold for the method and conditions named. Binding seen in cells or lysates may run through a third protein. A yes stands for co-enrichment or nearness to the bait. Other partners may have been found.

Sequences of proteins named here, by UniProt entry; tags and fusion partners are left off.
UniProt Q5S006: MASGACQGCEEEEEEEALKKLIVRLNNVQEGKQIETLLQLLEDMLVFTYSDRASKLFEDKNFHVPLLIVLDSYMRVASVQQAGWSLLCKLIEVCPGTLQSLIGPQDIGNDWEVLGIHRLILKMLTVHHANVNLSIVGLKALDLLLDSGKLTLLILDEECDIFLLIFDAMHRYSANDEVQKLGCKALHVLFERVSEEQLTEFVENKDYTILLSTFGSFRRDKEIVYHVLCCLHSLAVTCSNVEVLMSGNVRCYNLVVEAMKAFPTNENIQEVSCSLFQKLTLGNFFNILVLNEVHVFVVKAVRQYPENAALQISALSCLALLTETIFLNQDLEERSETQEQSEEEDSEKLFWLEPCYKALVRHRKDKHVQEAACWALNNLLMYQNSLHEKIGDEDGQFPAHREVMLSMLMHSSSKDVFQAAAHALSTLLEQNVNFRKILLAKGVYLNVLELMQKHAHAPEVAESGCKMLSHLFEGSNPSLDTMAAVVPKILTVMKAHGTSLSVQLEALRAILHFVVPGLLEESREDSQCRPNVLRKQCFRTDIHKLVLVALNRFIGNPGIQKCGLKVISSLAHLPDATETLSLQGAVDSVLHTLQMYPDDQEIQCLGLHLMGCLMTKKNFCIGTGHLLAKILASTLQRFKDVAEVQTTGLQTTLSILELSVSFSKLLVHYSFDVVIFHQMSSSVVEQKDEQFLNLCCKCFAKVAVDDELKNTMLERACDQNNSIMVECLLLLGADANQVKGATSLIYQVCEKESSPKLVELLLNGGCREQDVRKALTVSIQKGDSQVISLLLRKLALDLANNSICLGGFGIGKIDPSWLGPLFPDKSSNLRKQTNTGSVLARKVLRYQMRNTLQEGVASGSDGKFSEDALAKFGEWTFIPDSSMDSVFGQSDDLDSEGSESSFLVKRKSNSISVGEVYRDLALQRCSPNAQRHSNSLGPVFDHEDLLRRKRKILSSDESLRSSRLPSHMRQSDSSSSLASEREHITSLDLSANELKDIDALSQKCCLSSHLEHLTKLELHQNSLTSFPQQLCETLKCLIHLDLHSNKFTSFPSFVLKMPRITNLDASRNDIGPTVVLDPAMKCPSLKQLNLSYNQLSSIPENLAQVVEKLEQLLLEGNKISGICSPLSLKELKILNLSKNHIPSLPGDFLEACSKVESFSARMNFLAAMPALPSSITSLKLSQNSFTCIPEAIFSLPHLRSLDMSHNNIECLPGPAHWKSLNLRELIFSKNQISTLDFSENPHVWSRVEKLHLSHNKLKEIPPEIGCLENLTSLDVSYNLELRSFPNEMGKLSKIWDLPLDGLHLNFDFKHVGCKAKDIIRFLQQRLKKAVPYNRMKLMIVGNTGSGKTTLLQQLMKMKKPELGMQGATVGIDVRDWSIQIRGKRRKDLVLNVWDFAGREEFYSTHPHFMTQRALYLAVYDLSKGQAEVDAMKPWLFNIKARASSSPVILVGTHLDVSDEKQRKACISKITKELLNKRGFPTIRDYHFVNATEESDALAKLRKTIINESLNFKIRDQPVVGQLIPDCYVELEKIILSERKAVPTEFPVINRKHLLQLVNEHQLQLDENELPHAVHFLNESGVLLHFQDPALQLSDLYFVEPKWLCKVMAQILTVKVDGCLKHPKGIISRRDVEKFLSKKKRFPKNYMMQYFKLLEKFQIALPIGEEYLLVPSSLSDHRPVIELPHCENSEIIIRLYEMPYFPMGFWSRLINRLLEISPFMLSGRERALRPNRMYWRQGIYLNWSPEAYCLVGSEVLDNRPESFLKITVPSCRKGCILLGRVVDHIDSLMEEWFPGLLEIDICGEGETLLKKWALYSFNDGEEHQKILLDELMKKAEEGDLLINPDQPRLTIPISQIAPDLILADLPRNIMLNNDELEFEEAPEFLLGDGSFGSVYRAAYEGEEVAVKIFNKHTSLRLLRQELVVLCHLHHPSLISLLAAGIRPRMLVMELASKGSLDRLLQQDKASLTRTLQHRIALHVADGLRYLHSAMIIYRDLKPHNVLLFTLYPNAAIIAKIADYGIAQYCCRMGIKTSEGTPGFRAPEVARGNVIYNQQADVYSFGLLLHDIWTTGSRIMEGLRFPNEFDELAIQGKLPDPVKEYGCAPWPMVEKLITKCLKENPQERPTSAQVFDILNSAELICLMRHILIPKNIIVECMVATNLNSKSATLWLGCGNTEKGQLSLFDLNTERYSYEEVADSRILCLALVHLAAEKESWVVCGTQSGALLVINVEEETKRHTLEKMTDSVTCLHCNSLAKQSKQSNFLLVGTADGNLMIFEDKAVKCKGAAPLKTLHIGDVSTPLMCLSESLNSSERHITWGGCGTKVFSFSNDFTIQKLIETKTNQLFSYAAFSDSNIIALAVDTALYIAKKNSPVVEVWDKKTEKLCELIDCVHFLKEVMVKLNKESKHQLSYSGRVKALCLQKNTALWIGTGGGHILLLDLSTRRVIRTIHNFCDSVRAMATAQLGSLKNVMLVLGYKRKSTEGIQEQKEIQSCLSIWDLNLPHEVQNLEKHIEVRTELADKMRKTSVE

How the values were obtained:
[1] = target: endogenous LRRK2 (Leucine-rich repeat kinase 2) (mouse (endogenous in SN4741 and in mouse ventral midbrain)) (UniProt Q5S006); experiment: affinity purification with mass spectrometry; SN4741 cells, endogenous LRRK2 immunoprecipitated, LC-MS/MS; which of the two protocols (NP40 in-gel, sodium deoxycholate on-beads) gave this hit is not given
[2] = target: endogenous LRRK2 (Leucine-rich repeat kinase 2) (mouse (endogenous in SN4741 and in mouse ventral midbrain)) (UniProt Q5S006); experiment: affinity purification with mass spectrometry; SN4741 cells, endogenous LRRK2 immunoprecipitated; buffer with 0.1% sodium deoxycholate, tryptic digestion directly on beads, LC-MS/MS; only proteins absent in the IgG control counted
[3] = target: endogenous LRRK2 (Leucine-rich repeat kinase 2) (mouse (endogenous in SN4741 and in mouse ventral midbrain)) (UniProt Q5S006); experiment: affinity purification with mass spectrometry; SN4741 cells, endogenous LRRK2 immunoprecipitated; NP40 buffer, SDS-PAGE, Coomassie staining, in-gel tryptic digestion, LC-MS/MS; only proteins absent in the IgG control counted

Row | binding [1] | binding [2] | binding [3] | Binder
1 | binds | – | – | Lipoma-preferred partner (endogenous, mouse) (protein, UniProt Q8BFW7 1-613) MSHPSWLPPKSTGEPLGHVPARMETTHSFGNPSISVSTQQPPKKYAPVVAPKPKYNPYKQPGGEGDLLPPPPPPLEDPGTIPPGPGHFPPPPPLDEGAFKVQQGNPGGKTLEERRSSLDAEIDSLTSILADLECSSPYKPRPPQGSASSIASPPVSTPVTGHKRMVIPQQPPLTATKKSATKPQPAPQAAPIPVTPIGTLKPQPQPVPASYTTASTSSRPTFNVQVKSAQPSPHYMAGPSSGQIYGPGPRGYNNQPVPVSGQCPPPPTCVGTDYAYIPPSGHPPESGYGYTSNQGRYYEPYYAAGPSYGGRSEGDTAYGQQVQPNTWKREAAYAPPASGNQNHPGMYPVSGPKKTYITDPVSAPCAPPLQPKGGYPGPMGPPSIPPSFRPEDELEHLTKKMLYDMENPPADDYFGRCARCGENVVGEGTGCTAMDQVFHVDCFTCIVCDVKLRGQPFYAVEKKAYCEPCYINTLEQCSVCSKPIMERILRATGKAYHPHCFTCVMCHRSLDGIPFTVDACGLIHCIEDFHKKFAPRCSVCKEPIMPAPGQEETVRIVALDRDFHVHCYRCEDCGGLLSEGDNQGCYPLDGHILCKTCNSARIRVLTAKASTDL
2 | – | binds | binds | BEN domain-containing protein 3 (endogenous, SN4741) (protein, UniProt Q6PAL0 1-825) MNSTEISEDVEEVLKNNPVKAEGSDATLDCSRNSRASEKHLLESVLTALHDSSKRKQLDSDGQPDSVPSVKRRRLIPEALLAGMRTRENSSPCQGNGEPASRGRSGSCAWPAEEEPSTEATVPSYKKPLYGISHKIMEKKNPPSGDLLSPYELFEKANSSSGPSPLRLLSESQKRECGVGVATDGDLNIYFLIQKMFYMLNGLTTNMSQLHSKMDLLSLEVSRVKKQVSPSELVAKFQPPPEYQLTASELKQIAEQSLSCGDLACRLLLQLFPELFSDVDFSRGCSACGFAAKRKLESLHLQLIRNYVEVYYPNVKDTAVWQAECLPQLNDFFSRFWAQREMEDSQPGGQVTNFFEADQVDAGHFLDNKDQEEALSLDRSSTIASDHVVDTQDLTEFLDEASSPGEFAVFLLHRLFPELFDHRKLGEQYSCYGDGGKQELDPQRLQIIRNYTEIYFPDMQEEEAWLQQCAQRINDELEGLGLEGGSEGEAPRDDCYDSSSLPDDISVVKVEDNFEGERPGRRSKKIWLVPIDFDKLEIPQPDFEMPGSDCLLSKEQLRSIYESSLSIGNFASRLLVHLFPELFTHENLRKQYNCSGSLGKKQLDPARIRLIRHYVQLLYPRAKNDRVWTLEFVGKLDERCRRRDTEQRRSYQQQRKVHVPGPECRDLASYAINPERFREEFEGPPLPPERSSKDFCKIPLDELVVPSPDFPVPSPYLLSDKEVREIVQQSLSVGNFAARLLVRLFPELFTTENLRLQYNHSGACNKKQLDPTRLRLIRHYVEAVYPVEKMEEVWHYECIPSIDERCRRPNRKKCDILKKAKKVEK
